The campaign covered roughly 230,000 compounds. About 310 (0.13%) were called active. Inconclusive results (about 2%) are left out. Calls come from the whole dose curve; as a rule, active = well fitted activation curve with a large enough effect; inconclusive = small, poorly fitted or top-dose-only effect; inactive = no such curve, though single readings can be large or run the other way. Only a part is listed here, and it is no random draw. Entries without a call were filed so in the source.
Assay: qHTS Multiplex Assay to Identify Dual Action Probes in a Cell Model of Huntington: Cytoprotection (ATP); note: nearly all actives have a fitted effect of over 45% in size;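 for cytoprotection (ATP increase): toxic huntingtin expression switched on by the ecdysone agonist tebufenozide; % of control where 0% means no effect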
Conditions: PC12 HTT-Q103 induced, ATP luminescence, 40 h; cytoprotection (ATP increase): at 56.4 µM (top of the series) unless noted
Source text: NIH Chemical Genomics Center [NCGC]
NIH Molecular Libraries Probe Production centers Network [MLPCN]
Assay Submitter (PI): Wei Zheng
Huntington's disease is a neurodegenerative disorder caused by a trinucleotide repeat expansion in Exon 1 of the Huntingtin gene. The CAG trinucleotide encodes glutamine and polyglutamine expansions cause cell death in selective areas of the brain. Huntington polyglutamine repeats have the tendency to form aggregates which are observable in later stages of the disease. The exact nature of the aggregates, whether toxic, protective, or insignificant, is unclear.
A stable PC12 cell line containing a gene fusion of Exon 1 of the Huntingtin gene linked to GFP under the control of the inducible ecdysone promoter were used as the cell-based model of Huntington Disease for high throughput screening. Exon 1 of the Huntingtin gene contained an expansion of 103 polyglutamines (Q103) which, when expressed, caused cell death and distinct, bright GFP aggregates. The amount of cell death and the size and intensity of GFP aggregates increased over time and induction level. The cell death were quantified with a measurement of ATP content in the cells. A maximal 40-50% of cell death was observed when the Huntington gene was induced in this cell line.
We optimized this assay in a homogeneous 1536 well format. A quantitative high throughput screen (qHTS) was conducted on the PC12 cells which were induced to express the toxic fusion construct. Small molecules which prevented cell death were identified by using a luminescent ATP quantification method (Perkin Elmer's ATPlite).
PC12 cells stably containing a construct with an ecdysone inducible promoter expressing GFP fused to the exon 1 of HTTQ103 (Huntington protein which containing a 103 ployglutamine expansion) were used.
NCGC Assay Protocol Summary:
Sequence, Parameter, Description
1, Reagent, 5 uL 1500 cells/well 1536 TC treated White clear bottom plate
2, Compound, 23 nL Tebufenozide inducer (100 nM final) to all columns
3, Compound, 23 nL 40 uM to 0.5 nM Libraries
5, Reagent, 5 ul ATPLite cell death assay reagent
6, Detector, 4 sec integration with a Viewlux Luminescent
Media consisted of phenol red free DMEM + 5% equine serum (Hyclone # SH30072.03 ), 5% supplemented Bovine Calf Serum (Hyclone # SH30074.03 ), 1x pen/strep, no G418
Control columns: 1 = DMSO, 2= 2 uM teb dilns (1:1), 4 = 100 nM Teb inducer. Sample columns received 100 nM Teb.
Potency is the fitted concentration of half-maximal effect.

| Compound | cytoprotection (ATP increase) | Potency |
| --- | --- | --- |
| Cc1ccc(-c2cc(=O)c3ccccc3[nH]2)cc1 | -210% [at 96.6 µM] |  |
| NC(Cc1ccc(O)c(O)c1)C(=O)O (stereo not drawn) | -160% |  |
| CCOC(=O)c1ccc(S(=O)(=O)Nc2nc3cc(S(=O)(=O)NC4=NCCCCC4)ccc3s2)cc1 |  | active: 17.8 µM |
| C/C(=C\c1ccco1)C1C(C#N)=C(N)Oc2n[nH]c(-c3ccc(C)cc3)c21 (stereo not drawn) |  | active: 3.55 µM |
| CC/C=C\C/C=C\C/C=C\C/C=C\C/C=C\C/C=C\CCC(=O)NCCCC(=O)O | 36.4% |  |
| COc1ccc(Nc2ncnc3ccc(OC)cc23)cc1 | -60.3% |  |
| N#CCCn1c(=O)c(-c2ccc(F)cc2)nc2cnc(Oc3cccc(Cl)c3)nc21 |  | active: 3.16 µM |
| COc1cc(C(=O)NNC(=O)c2ccc(NC(C)=O)cc2)cc(OC)c1OC | 7.17% |  |
| CCOC(=O)N1CCN(C(=O)c2ccc(CS(=O)(=O)c3c(Cl)cccc3Cl)o2)CC1 | 305% [at 10 µM] |  |
| Clc1ccc(OCCN2CCCCC2)cc1Cl | 160% [at 0.074 µM] |  |
| CCCCCCCC/C=C\CCCCCCCC(=O)NCCc1ccc(O)c(O)c1 | -341% |  |
| COC(=O)C(c1ccc(OC)c(OC)c1)C1c2ccccc2C=C(C)N1C(=O)OC (stereo not drawn) | 36.8% |  |
| CC1=NC(C#N)=C(C#N)NC(C)(C)C1 | 43.9% |  |
| C=C[C@H]1CCC=C2C(=O)CCC[C@@H]21 | 7.24% |  |
| O=C(Oc1ccccc1)C1O[C@@H]1c1ccccc1 (stereo partly drawn) | 21.6% |  |
| CCCCCCCCCCCCCCCC(=O)NCC(=O)O | 30.6% |  |
| CCOC(=O)CNC(=O)O[C@H]1C(=O)c2ccc(OC)cc2O[C@@H]1c1ccc2c(c1)OCO2 | -10.6% |  |
| CC(=O)Oc1c(C)c(C)c2c(c1C)CCC(C)(CCCC(C)CCCC(C)CCCC(C)C)O2 (stereo not drawn) | 33.9% |  |
| COC(=O)CCCC1=CC2=CC(=O)C(C)(OC(=O)c3ccco3)C(=O)C2=CO1 (stereo not drawn) | 53% |  |
| COc1ccc(CNC(=O)CCCNS(=O)(=O)c2cccc3nonc23)cc1 |  | active: 3.55 µM |

| Compound | cytoprotection (ATP increase) | Potency |
| --- | --- | --- |
| CCCCC/C=C\C/C=C\C/C=C\C/C=C\CCCC(=O)OC(CO)CO | 109% |  |
| COc1ccc(C(=O)Oc2cc(N)n(S(=O)(=O)c3ccccc3)n2)cc1 |  | active: 0.708 µM |
| CCCCC[C@H](O)C/C=C1/C(=O)C=C[C@@H]1C/C=C\CCCC(=O)O | 69.8% |  |
| C#CC[N+]1(CC#Cc2cccc(C)c2)CCCCC1 | -38.5% |  |
| Cc1ccc(Nc2nc(-c3ccc(O)cc3O)cs2)nc1 | 413% [at 10 µM] |  |
| O=C1CCCCC2CCCCN12 (stereo not drawn) | -32.6% [at 96.6 µM] |  |
| C=C(C)[C@]12C[C@@H](C)[C@@]34OC(Cc5ccccc5)(O[C@@H]1[C@@H]3C=C(COC(=O)Cc1cc(OC)c(O)cc1I)C[C@]1(O)C(=O)C(C)=C[C@@H]41)O2 | -343% |  |
| CNC(=S)N(Cc1cccs1)Cc1cc2cc(OC)ccc2[nH]c1=O | 229% [at 10 µM] |  |
| Cc1cc(O)c(C=O)c2c1C(=O)Oc1c(COC(=O)/C=C/C(=O)O)c(O)c(C(=O)O)c(C)c1O2 | 76.2% |  |
| CCOc1ccccc1-c1ccc(C(=O)O)s1 | -53.2% [at 96.6 µM] |  |
| CS(=O)(=O)Nc1ccc([N+](=O)[O-])cc1OC1CCCCC1 | -52.2% |  |
| N#Cc1cccc(CS(=O)(=O)c2nc3ccccc3s2)c1 | 38.2% |  |
| O=[N+]([O-])c1cc(S(=O)(=O)/N=C(/c2ccccc2)N2CCOCC2)ccc1Cl | -120% |  |
| O=C(CCNC(=O)c1ccccc1Cl)Nc1nc(-c2ccc(F)cc2)cs1 | 271% [at 10 µM] |  |
| CCCOc1ccc(C(=O)Nc2ccc(S(=O)(=O)Nc3onc(C)c3C)cc2)cc1 | -37.6% |  |
| COC(=O)[C@@]1(Cc2ccc(OC)cc2)[C@@H]2C(=CC(=O)[C@H]2CC(=O)C(=O)N2CCCC2)CN1C(=O)c1ccccc1 |  | active: 7.08 µM |
| CC(C)OC(=O)[C@@H]1CC[C@H](C)[C@@H](CCCC=O)O1 | -67.6% |  |
| Cc1[nH]c2ccccc2c1C(=O)COC(=O)C1CCC(=O)N1 (stereo not drawn) | 43.5% |  |
| CC(C)OC(=O)[C@@H]1CC[C@H](C)[C@@H](CCC[C@@H]2C[C@@H](O)C[C@H](CC#N)O2)O1 | 42.1% |  |
| Brc1ccc(C2=NCCC(c3ccccc3)O2)cc1 (stereo not drawn) | -55.2% |  |

Part of the list above, bar-delimited.
Compound | cytoprotection (ATP increase) | Potency
CC(=O)Oc1c(C)c(C)c2c(c1C)CCC(C)(CCCC(C)CCCC(C)CCCC(C)C)O2 (stereo not drawn) | 33.9% | 
CCCCC/C=C\C/C=C\C/C=C\C/C=C\CCCC(=O)OC(CO)CO | 109% | 

(more compounds)

| Compound | cytoprotection (ATP increase) | Potency |
| --- | --- | --- |
| CCCCCCCCCCCCCCCC(=O)NCCO | -17.1% |  |
| [O][C@H]1[C@@H](O)[C@@H](CO)O[C@@H](O[C@@H]2[C@@H]3OC[C@H]2O[C@H](O[C@@H]2[C@@H](O)[C@H](C[C@@H]4[C@@H]5OC[C@H]4O[CH][C@@H]5O)O[C@H](CO)[C@@H]2OS(=O)(=O)O)[C@@H]3OS(=O)(=O)O)[C@@H]1O | -36.7% |  |
| NC(=O)CS(=O)(=O)c1nc2ccccc2n1Cc1ccccc1F |  | active: 25.1 µM |
| O=c1cc(N2CCNCC2)oc2c(-c3ccccc3)cccc12 | -64.5% |  |
| CCCCC1=CC2=CC(=O)C(C)(OC(=O)CCC(=O)OC)C(=O)C2=CO1 (stereo not drawn) | -42.1% |  |
| CCOc1ccc(NC(=S)N(CCCN2CCCC2)Cc2cccn2Cc2ccc(Cl)cc2)cc1 | -33.5% |  |
| Cc1cc(OCc2cccc(Cl)c2)c(C)cc1CN1CCOCC1 |  | active: 1.12 µM |
| O=C1CCC([N+](=O)[O-])C(c2ccc(Cl)c([N+](=O)[O-])c2)N1 (stereo not drawn) | 121% |  |
| COc1ccc2c(c1)CC[C@@H]1[C@@H]2CC[C@]2(C)[C@@H](NCCCCCCN3C(=O)C=CC3=O)CC[C@@H]12 | 3.96% |  |
| CC[C@H](C)[C@@H](NC(=O)O[C@@H]1C(=O)c2cc(Br)ccc2O[C@H]1c1cccc(OC)c1)C(=O)OC | -81.2% |  |
| CC(=O)n1cc([C@@H]2C=C(C(=O)NCc3ccccc3)O[C@H](OCCCCO)C2)c2ccccc21 | 205% [at 10 µM] |  |
| COc1cc(C/C=C/c2ccccc2)c(OC)cc1O | -167% |  |
| O=C(CCCc1cccs1)Nc1nc2c(s1)CCCC2 | 309% [at 10 µM] |  |
| O=C(O)C1CCC(=O)N(C2CCCCC2)C1c1ccccc1 (stereo not drawn) | 333% [at 10 µM] |  |
| COC(=O)/C=C/c1cccc([C@H]2[C@@H]3C=CC[C@@H](C)[C@@H]3C(=O)N2Cc2ccccc2)c1 | -93.7% |  |
| CC1Cc2ccccc2N1Cc1cc(=O)n2ccsc2n1 (stereo not drawn) | 334% [at 10 µM] |  |
| COC(=O)c1nnc(SC)nc1C(=O)OC | 24.7% |  |
| COc1cccc2c1CCC1=CC(=O)CC[C@@]12C | -8.08% |  |

From PubChem BioAssay AID1471 (National Center for Advancing Translational Sciences (NCATS), 2008)
